These results are taken from publication PMC4941734, “Structural and dynamics studies of a truncated variant of CI repressor from bacteriophage TP901-1” (Scientific Reports, 2016).

In assay [1] the target is CI-NTD, N-terminal helix-turn-helix DNA-binding domain of CI repressor from bacteriophage TP901-1 (74 residues of CI) (bacteriophage TP901-1) (UniProt O48503). The assay can be described thus: native MS; CI-NTD 2.2 μM with OL dsDNA 1.3 μM in 250 mM ammonium acetate, pH 6.8; both purified.
The target of assay [2] is CI∆78, truncated CI repressor from bacteriophage TP901-1 (first 102 residues of CI) (bacteriophage TP901-1) (UniProt O48503). Nature of the assay: SEC; HiLoad 26/60 Superdex 75; native molecular weight estimated by comparison with globular protein standards; both purified.

No constants are given. Whether binding was seen depends on the method and setting.

B1: CI-NTD, N-terminal helix-turn-helix DNA-binding domain of CI repressor from bacteriophage TP901-1 (74 residues of CI) (domain or fragment, UniProt O48503 1-74)
chain: MKTDTSNRLKQIMAERNLKQVDILNLSIPFQKKFGIKLSKSTLSQYVNSVQSPDQNRIYLLAKTLGVSEAWLMG
Consider B1, for which, in assay [1], the binding entry is “no binding (tested: 2.2 μM)”.

B2: CI∆78, truncated CI repressor from bacteriophage TP901-1 (first 102 residues of CI) (domain or fragment, UniProt O48503 1-102)
chain: MKTDTSNRLKQIMAERNLKQVDILNLSIPFQKKFGIKLSKSTLSQYVNSVQSPDQNRIYLLAKTLGVSEAWLMGFDVPMVESSKIENDSENIEETITVMKKL
With B2, in assay [2], the binding result was “no binding”.
